Holding throughout (test): proximity labelling; BioID: BirA*-FLAG-RagC baits in stable HEK293 Flp-In T-REx cells, tetracycline (1 µg/ml) and biotin (50 µM) for 24 h; biotinylated proteins captured on streptavidin-sepharose and identified by mass spectrometry; SAINT, FDR ≤1%
In experiment [1] the target is C-terminally BirA*-FLAG-tagged RagC, GTP-locked (Q120L) (human) (UniProt Q9HB90).
Experiment [2] deals with C-terminally BirA*-FLAG-tagged RagC, GDP-locked (S75N) (human) (UniProt Q9HB90).
Experiment [3] addresses C-terminally BirA*-FLAG-tagged RagC, wild type (human) (UniProt Q9HB90).

Amino acid sequences for entries named in this document (tags omitted). A change or cut given only in a name is not applied to a line headed by its entry.
UniProt Q9HB90: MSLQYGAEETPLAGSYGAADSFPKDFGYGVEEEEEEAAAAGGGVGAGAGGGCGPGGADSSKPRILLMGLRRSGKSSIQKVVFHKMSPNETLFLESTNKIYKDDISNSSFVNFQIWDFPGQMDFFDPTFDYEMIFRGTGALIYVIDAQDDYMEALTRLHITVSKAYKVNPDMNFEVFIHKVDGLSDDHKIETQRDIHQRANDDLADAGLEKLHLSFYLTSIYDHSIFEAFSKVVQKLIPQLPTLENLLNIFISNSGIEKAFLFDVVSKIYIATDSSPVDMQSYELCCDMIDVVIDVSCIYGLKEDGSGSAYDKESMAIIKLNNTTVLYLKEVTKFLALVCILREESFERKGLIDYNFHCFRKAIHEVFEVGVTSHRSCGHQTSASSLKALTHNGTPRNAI
UniProt Q68DK2: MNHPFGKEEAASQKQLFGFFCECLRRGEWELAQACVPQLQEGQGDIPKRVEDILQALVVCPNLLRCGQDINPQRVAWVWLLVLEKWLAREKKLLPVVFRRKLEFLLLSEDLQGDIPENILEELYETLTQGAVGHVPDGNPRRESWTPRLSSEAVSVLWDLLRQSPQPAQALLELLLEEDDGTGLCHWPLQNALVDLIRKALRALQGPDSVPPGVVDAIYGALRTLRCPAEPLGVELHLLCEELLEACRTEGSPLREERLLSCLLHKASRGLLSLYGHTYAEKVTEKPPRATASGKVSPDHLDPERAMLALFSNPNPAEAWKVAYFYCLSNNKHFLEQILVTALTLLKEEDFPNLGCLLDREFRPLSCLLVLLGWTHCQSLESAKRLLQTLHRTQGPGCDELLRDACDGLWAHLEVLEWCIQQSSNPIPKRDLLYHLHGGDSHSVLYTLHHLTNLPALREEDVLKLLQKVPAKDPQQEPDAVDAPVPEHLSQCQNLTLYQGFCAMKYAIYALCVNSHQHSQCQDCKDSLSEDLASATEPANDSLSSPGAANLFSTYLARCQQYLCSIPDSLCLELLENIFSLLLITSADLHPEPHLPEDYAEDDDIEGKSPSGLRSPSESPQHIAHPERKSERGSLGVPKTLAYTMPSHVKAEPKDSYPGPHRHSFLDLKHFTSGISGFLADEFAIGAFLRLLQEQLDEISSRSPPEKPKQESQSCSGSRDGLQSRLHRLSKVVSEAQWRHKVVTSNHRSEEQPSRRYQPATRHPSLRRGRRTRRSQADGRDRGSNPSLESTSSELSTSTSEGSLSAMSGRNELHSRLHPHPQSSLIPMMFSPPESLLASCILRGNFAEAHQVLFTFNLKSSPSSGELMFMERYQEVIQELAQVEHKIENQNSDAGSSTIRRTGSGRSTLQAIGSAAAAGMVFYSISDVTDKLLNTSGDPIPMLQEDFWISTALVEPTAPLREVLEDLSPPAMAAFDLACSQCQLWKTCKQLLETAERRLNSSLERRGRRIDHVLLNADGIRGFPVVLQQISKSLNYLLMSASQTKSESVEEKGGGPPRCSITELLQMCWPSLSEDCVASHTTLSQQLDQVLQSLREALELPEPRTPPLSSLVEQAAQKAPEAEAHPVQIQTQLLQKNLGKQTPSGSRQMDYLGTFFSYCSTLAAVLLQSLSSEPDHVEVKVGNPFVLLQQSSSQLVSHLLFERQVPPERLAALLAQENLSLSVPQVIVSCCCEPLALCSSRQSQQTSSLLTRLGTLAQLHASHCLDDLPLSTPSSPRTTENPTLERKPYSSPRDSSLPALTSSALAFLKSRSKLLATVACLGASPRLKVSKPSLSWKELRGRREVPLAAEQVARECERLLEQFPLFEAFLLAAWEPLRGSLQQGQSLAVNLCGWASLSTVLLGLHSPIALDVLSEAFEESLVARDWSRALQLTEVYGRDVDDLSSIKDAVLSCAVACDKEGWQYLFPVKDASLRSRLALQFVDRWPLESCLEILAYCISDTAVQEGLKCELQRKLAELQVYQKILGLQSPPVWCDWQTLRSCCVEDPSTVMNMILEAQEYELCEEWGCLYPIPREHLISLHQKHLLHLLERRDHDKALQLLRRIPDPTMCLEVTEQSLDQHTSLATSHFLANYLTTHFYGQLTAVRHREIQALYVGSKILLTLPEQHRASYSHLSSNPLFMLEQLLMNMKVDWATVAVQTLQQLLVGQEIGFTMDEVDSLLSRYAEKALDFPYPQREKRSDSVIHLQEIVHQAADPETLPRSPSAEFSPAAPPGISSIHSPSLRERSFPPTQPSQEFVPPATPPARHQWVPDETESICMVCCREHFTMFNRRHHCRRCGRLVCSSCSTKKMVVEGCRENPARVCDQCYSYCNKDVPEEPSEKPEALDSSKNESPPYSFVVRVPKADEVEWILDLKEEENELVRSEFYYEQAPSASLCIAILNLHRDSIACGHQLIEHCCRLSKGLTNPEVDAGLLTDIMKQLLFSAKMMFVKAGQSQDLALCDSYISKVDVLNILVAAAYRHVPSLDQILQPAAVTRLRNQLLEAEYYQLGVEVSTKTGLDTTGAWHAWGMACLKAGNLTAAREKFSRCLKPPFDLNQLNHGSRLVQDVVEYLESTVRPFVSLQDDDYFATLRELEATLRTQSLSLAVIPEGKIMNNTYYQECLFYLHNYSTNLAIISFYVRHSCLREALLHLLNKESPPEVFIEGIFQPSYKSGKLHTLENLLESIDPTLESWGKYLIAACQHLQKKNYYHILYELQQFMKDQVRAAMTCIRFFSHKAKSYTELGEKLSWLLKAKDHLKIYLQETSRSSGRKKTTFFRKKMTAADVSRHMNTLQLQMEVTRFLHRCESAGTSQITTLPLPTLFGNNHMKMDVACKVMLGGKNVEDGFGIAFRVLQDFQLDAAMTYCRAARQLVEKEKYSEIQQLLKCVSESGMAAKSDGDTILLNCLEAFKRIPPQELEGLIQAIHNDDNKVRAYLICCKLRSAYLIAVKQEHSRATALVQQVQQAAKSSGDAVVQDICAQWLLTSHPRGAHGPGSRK

These results are taken from publication PMC7814351.

No constants are given. Whether binding was seen depends on the method and setting. Binding seen in cells or lysates may run through a third protein. Here binding means that the protein was enriched with, or labelled near, the bait; the list need not be complete. For part of these data: A no says only that the protein was not detected with the bait.

With “SPG15 (spastizin), BioID prey (from UniProt Q68DK2 1-2539)”, the values for the binding entry in experiment [1], in experiment [2] and in experiment [3] were “no binding”, “binds” and “no binding”, respectively.
